Source: the supplement of paper PMC12823440, “Inhibitors supercharge kinase turnover through native proteolytic circuits” (Nature, 2025)
Structures can show the parent of a compound that is named as a salt. The list shows a part of the results. The calls rarely recur for the same compound in another form.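 Kinases were expressed as nanoluciferase fusions in K562 cells and luminescence was read every 4 h between 2 and 18 h as percent of control, DMSO set to 100% and a positive control to 0%. A time point counts as decreased when the signal drops significantly (2 sigma). The hit call is the authors' own, does not follow from the count of time points alone, and its rule is not shown.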

Amino acid sequences for entries named in this document (tags omitted). A change or cut given only in a name is not applied to a line headed by its entry.
UniProt P29317, whole entry: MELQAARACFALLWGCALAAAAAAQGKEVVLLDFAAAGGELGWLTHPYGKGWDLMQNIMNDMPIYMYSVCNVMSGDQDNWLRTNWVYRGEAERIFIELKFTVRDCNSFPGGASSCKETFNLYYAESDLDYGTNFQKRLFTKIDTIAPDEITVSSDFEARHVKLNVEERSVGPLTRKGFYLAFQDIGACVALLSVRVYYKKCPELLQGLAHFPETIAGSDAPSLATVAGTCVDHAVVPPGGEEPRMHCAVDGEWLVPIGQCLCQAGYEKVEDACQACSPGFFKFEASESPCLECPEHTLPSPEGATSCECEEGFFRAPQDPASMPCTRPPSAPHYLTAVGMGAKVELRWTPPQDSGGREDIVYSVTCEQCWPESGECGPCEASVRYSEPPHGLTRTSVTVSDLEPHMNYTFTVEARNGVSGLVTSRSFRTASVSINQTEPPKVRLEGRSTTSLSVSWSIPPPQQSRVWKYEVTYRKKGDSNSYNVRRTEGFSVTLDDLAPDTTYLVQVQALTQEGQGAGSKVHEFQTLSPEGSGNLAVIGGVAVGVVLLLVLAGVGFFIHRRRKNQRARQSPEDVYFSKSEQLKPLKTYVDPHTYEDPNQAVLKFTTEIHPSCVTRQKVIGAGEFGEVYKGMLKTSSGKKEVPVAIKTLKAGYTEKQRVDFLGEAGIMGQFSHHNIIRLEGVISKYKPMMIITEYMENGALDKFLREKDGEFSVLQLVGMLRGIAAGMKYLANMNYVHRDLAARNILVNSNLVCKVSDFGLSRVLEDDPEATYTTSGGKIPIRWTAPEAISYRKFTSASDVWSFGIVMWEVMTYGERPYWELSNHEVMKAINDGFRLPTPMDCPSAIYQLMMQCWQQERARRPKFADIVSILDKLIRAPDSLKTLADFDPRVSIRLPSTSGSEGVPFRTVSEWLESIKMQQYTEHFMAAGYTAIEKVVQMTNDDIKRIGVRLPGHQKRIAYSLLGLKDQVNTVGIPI
UniProt P21860, whole entry: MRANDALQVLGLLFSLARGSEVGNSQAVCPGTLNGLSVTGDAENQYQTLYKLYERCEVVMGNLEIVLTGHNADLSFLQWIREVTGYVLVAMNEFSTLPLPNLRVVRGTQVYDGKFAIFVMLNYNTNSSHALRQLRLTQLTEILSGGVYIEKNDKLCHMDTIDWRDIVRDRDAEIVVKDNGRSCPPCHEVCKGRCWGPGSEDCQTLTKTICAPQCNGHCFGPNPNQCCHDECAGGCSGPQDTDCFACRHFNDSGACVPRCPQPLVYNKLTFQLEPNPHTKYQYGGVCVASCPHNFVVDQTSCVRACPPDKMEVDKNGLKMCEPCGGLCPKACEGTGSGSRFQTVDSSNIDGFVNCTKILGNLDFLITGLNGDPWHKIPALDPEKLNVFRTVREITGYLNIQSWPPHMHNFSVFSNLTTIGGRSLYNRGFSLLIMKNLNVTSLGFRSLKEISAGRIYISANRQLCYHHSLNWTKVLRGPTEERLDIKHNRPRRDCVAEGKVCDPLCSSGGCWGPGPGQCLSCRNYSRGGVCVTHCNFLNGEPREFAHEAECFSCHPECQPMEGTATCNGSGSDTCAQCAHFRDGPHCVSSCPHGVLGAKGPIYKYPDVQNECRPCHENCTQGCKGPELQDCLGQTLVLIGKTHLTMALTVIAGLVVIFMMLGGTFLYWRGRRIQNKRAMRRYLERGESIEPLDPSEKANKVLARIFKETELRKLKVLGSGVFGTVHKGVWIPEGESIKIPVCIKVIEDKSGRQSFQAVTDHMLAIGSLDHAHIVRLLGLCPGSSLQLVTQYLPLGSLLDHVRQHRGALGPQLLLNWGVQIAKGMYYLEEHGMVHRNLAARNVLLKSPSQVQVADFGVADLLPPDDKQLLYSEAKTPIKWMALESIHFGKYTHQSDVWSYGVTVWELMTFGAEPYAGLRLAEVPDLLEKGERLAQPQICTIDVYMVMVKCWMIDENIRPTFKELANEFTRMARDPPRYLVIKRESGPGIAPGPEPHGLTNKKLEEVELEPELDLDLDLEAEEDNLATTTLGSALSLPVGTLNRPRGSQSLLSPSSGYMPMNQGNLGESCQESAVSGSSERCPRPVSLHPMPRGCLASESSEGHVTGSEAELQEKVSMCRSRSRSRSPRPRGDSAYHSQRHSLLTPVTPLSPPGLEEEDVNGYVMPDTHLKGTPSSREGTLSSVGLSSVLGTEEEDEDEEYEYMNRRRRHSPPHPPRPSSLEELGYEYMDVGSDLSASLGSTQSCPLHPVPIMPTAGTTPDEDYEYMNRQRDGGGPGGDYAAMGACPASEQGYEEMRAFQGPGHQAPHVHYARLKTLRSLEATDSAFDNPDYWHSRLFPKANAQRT
UniProt O75460: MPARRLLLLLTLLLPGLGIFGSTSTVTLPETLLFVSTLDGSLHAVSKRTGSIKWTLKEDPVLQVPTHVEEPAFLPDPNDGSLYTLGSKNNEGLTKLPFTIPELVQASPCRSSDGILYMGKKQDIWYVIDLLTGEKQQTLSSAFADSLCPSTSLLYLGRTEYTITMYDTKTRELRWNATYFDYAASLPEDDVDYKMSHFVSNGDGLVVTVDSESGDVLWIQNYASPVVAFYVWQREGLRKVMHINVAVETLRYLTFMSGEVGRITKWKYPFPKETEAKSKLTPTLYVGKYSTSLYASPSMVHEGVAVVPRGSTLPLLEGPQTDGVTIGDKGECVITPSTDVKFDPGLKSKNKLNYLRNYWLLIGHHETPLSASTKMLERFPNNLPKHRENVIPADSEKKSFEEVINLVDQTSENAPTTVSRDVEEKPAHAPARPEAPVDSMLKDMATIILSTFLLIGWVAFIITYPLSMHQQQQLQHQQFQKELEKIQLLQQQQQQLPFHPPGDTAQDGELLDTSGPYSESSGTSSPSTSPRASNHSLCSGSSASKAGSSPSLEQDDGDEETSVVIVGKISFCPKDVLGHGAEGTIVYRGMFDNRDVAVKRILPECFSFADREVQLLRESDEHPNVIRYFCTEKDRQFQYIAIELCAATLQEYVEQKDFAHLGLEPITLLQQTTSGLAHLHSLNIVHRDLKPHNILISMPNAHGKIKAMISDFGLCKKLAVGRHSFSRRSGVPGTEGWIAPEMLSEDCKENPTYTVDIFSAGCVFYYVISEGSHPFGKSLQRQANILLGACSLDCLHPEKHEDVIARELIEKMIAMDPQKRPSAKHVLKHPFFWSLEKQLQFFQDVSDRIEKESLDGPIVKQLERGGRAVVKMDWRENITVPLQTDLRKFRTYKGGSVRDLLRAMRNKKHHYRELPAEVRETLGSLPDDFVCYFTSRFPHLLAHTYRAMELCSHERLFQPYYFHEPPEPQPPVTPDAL
UniProt P11362, whole entry, looked up: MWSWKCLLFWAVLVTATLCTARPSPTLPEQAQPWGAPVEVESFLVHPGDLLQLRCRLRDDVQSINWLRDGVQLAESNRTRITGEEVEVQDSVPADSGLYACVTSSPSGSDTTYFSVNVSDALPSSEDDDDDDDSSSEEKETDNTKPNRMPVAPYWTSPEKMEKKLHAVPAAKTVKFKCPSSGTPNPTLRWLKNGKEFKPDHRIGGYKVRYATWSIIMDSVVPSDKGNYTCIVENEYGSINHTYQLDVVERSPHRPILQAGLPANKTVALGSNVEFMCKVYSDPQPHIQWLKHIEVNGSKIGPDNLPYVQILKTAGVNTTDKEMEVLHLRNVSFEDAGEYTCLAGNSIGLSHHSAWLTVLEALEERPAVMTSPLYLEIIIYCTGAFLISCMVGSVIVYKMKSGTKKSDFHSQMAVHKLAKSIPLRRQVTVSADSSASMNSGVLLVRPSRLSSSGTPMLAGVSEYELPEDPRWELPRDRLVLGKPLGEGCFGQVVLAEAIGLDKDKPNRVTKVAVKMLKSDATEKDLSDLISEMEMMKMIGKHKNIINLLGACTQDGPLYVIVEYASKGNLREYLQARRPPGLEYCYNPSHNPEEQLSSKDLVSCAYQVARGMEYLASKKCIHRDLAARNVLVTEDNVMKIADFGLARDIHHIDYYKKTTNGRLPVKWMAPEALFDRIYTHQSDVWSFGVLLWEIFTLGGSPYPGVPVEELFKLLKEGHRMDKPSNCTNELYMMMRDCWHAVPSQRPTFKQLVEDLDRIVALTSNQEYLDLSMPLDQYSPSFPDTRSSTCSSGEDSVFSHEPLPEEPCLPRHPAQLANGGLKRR
UniProt P21802, whole entry, looked up: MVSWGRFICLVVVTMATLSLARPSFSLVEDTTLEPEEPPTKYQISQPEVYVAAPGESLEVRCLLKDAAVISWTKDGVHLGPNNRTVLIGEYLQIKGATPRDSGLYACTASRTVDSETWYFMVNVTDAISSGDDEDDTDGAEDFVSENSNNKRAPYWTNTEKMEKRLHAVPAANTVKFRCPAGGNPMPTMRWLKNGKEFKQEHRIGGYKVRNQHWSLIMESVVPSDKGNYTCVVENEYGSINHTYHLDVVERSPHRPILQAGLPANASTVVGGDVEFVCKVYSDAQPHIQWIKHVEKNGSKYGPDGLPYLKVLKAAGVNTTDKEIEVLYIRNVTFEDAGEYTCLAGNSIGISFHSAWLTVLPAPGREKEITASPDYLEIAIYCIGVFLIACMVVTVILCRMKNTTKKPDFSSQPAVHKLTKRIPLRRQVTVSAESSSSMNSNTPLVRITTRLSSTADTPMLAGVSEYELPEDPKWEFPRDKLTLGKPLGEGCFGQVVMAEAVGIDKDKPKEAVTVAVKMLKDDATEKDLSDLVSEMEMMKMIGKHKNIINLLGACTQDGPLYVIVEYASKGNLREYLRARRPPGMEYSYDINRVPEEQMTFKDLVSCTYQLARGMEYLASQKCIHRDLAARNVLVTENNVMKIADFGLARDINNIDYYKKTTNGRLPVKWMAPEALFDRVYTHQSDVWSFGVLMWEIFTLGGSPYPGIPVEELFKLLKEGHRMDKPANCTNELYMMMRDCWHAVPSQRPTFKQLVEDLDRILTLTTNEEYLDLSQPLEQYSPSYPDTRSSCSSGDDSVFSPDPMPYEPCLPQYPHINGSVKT
UniProt P22607, whole entry, looked up: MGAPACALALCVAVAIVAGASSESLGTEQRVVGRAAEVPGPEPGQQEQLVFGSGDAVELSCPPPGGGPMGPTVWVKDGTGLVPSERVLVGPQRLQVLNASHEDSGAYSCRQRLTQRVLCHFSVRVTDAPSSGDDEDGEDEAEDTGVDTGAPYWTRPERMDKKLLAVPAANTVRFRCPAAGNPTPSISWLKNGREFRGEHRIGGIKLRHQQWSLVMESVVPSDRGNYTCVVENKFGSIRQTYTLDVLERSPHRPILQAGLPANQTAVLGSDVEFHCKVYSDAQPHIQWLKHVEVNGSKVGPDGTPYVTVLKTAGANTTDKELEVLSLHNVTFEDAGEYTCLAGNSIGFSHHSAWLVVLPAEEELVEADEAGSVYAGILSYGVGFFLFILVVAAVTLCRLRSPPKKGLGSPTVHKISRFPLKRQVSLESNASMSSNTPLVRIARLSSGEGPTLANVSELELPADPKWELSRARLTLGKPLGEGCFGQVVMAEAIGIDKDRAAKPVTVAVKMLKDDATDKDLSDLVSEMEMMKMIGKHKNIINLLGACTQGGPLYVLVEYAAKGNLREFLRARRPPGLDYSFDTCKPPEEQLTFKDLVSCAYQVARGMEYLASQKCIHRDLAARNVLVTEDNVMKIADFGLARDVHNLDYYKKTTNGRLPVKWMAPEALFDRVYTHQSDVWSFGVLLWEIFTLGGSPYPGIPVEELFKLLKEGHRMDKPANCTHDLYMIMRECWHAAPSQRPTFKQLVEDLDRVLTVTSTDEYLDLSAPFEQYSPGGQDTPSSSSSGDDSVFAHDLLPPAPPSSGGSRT

Key:
Test in all cases: number of time points (of 5) at which kinase-Nluc abundance scored as decreased, DMSO-normalised (count); higher = more persistent destabilization
Conditions in all cases: K562; 2-18 h
EGFR_L861Q = EGFR_L861Q (UniProt P00533)
EGFR_T790M = EGFR_T790M (UniProt P00533)
EPHA2 = EPHA2 (UniProt P29317)
ERBB3 = ERBB3 (UniProt P21860)
[1] = target: ERBB4_R711C (clone: ERBB4_mut) (UniProt Q15303)
ERN1 = ERN1 (UniProt O75460)
FGFR1 = FGFR1 (UniProt P11362)
FGFR2 = FGFR2 (UniProt P21802)
FGFR3 = FGFR3 (UniProt P22607)
FGR = FGR (UniProt P09769)

| SMILES | number of time points (EGFR_L861Q) | number of time points (EGFR_T790M) | number of time points (EPHA2) | number of time points (ERBB3) | number of time points [1] | number of time points (ERN1) | number of time points (FGFR1) | number of time points (FGFR2) | number of time points (FGFR3) | number of time points (FGR) |
| --- | --- | --- | --- | --- | --- | --- | --- | --- | --- | --- |
| CCCC(=O)Nc1nc2c(ncn2[C@@H]2O[C@@H]3COP(=O)(O)O[C@H]3[C@H]2OC(=O)CCC)c(=O)[nH]1 [Dibutyryl-cGMP (sodium)] (10 µM) | 0 | 0 | 0 | 0 | 0 | 0 | 0 | 0 | 0 | 0 |
| O=C1NC(=O)C(c2cnc3ccccn23)=C1c1cn2c3c(cc(F)cc13)CN(C(=O)N1CCCCC1)CC2 (2.5 µM) | 0 | 0 | 0 | 0 | 0 | 0 | 0 | 0 | 0 | 0 |
| O=c1ccc2ccc(O)c(O)c2o1 [Daphnetin] (10 µM) | 0 | 0 | 0 | 0 | 0 | 0 | 0 | 0 | 0 | 0 |
| Cn1cc(-c2cc3c(N4CCN(c5ncc([C@@](C)(N)c6ccc(F)cc6)cn5)CC4)ncnn3c2)cn1 [Avapritinib] (2.5 µM) | 0 | 0 | 0 | 0 | 0 | 0 | 0 | 0 | 0 | 0 |
| COc1ccccc1/C=C1\C(=O)Nc2ccccc21 (10 µM) | 0 | 0 | 0 | 0 | 0 | 0 | 0 | 0 | 0 | 0 |
| CCOc1nc(Nc2ccc(C(=O)N3CCOCC3)cc2OC)nc2[nH]ccc12 [LRRK2 inhibitor 1] (2.5 µM) | 0 | 0 | 0 | 0 | 0 | 0 | 0 | 0 | 0 | 0 |
| O=C(CO)N1CCC(c2n[nH]c(-c3ccc(Cl)cc3)c2-c2ccncn2)CC1 (10 µM) | 0 | 0 | 0 | 0 | 0 | 0 | 0 | 0 | 0 | 0 |
| CN(C)c1ncnc2nc[nH]c12 [6-(Dimethylamino)purine] (10 µM) | 0 | 0 | 0 | 0 | 0 | 0 | 0 | 0 | 0 | 0 |
| C[C@@H]1O[C@@H](OC[C@H]2O[C@@H](Oc3cc(O)c4c(c3)O[C@H](c3ccc(O)cc3)CC4=O)[C@H](O)[C@@H](O)[C@@H]2O)[C@H](O)[C@H](O)[C@H]1O [Narirutin] (10 µM) | 0 | 0 | 0 | 0 | 0 | 0 | 0 | 0 | 0 | 0 |
| c1cc(-c2cnn3cc(-c4ccc(N5CCNCC5)cc4)cnc23)c2cccnc2c1 (2.5 µM) | 0 | 0 | 0 | 0 | 0 | 0 | 2 | 0 | 0 | 0 |
| Nc1nc2cc(-c3ccc4ncc(C(=O)N5CCOCC5)n4c3)ccc2o1 [Serabelisib] (10 µM) | 0 | 0 | 0 | 0 | 0 | 0 | 0 | 0 | 0 | 0 |
| O=Nc1c(-c2c(O)[nH]c3ccccc23)[nH]c2ccccc12 [Indirubin-3'-monoxime] (2.5 µM) | 0 | 0 | 0 | 0 | 0 | 0 | 4 | 0 | 0 | 0 |
| O=C(Nc1ccc(Cl)c(Cl)c1)Nc1ccc2nnsc2c1 (10 µM) | 0 | 0 | 0 | 0 | 0 | 0 | 0 | 0 | 0 | 0 |
| N#C/C(=C(/N)Sc1ccc(N)cc1)c1ccccc1C(F)(F)F (10 µM) | 0 | 0 | 0 | 0 | 0 | 0 | 0 | 0 | 0 | 0 |
| COc1ccc2c(=O)c(-c3ccccc3)coc2c1 [7-Methoxyisoflavone] (10 µM) | 0 | 0 | 0 | 0 | 0 | 0 | 3 | 0 | 0 | 0 |
| Cc1cc2ncc(-c3ccccc3)nc2cc1C (10 µM) | 0 | 0 | 0 | 0 | 0 | 0 | 0 | 0 | 0 | 0 |
| O=C(Nc1ccc(Cl)cc1)C1CCCN(C(=O)c2cccc(-c3ccco3)c2)C1 (stereo not given) (2.5 µM) | 0 | 0 | 0 | 0 | 0 | 0 | 0 | 0 | 0 | 0 |
| CN(C)c1nc2c(Br)c(Br)c(Br)c(Br)c2n1CC(=O)O (10 µM) | 0 | 0 | 0 | 0 | 0 | 0 | 0 | 0 | 0 | 0 |
| COc1ccc2c(c1)c(C1=C(c3c[nH]c4ccccc34)C(=O)NC1=O)cn2CCCN(C)C (10 µM) | 0 | 0 | 0 | 0 | 0 | 0 | 0 | 0 | 0 | 0 |
| C=C(F)C(=O)N1CCN(c2nc(OC[C@@H]3CCCN3C)nc3c2CCN(c2cccc4cccc(Cl)c24)C3)C[C@@H]1CC#N (2.5 µM) | 0 | 0 | 0 | 0 | 0 | 0 | 0 | 0 | 0 | 0 |
| Cc1ccc(-c2ncn(-c3ccc(Nc4nccc(-c5cccc(N6CCOCC6)c5)n4)cc3)n2)cn1 (10 µM) | 0 | 0 | 0 | 0 | 0 | 0 | 0 | 0 | 0 | 0 |
| CC1=C(C(=O)Nc2ccc3[nH]ncc3c2)C(c2ccc(F)cc2)NC(=O)N1 (stereo not given) (10 µM) | 0 | 0 | 0 | 0 | 0 | 0 | 0 | 0 | 0 | 0 |

Entries above with a carbonyl joined to an NH by a bond outside any ring (4):

| SMILES | number of time points (EGFR_L861Q) | number of time points (EGFR_T790M) | number of time points (EPHA2) | number of time points (ERBB3) | number of time points [1] | number of time points (ERN1) | number of time points (FGFR1) | number of time points (FGFR2) | number of time points (FGFR3) | number of time points (FGR) |
| --- | --- | --- | --- | --- | --- | --- | --- | --- | --- | --- |
| CCCC(=O)Nc1nc2c(ncn2[C@@H]2O[C@@H]3COP(=O)(O)O[C@H]3[C@H]2OC(=O)CCC)c(=O)[nH]1 [Dibutyryl-cGMP (sodium)] (10 µM) | 0 | 0 | 0 | 0 | 0 | 0 | 0 | 0 | 0 | 0 |
| O=C(Nc1ccc(Cl)c(Cl)c1)Nc1ccc2nnsc2c1 (10 µM) | 0 | 0 | 0 | 0 | 0 | 0 | 0 | 0 | 0 | 0 |
| O=C(Nc1ccc(Cl)cc1)C1CCCN(C(=O)c2cccc(-c3ccco3)c2)C1 (stereo not given) (2.5 µM) | 0 | 0 | 0 | 0 | 0 | 0 | 0 | 0 | 0 | 0 |
| CC1=C(C(=O)Nc2ccc3[nH]ncc3c2)C(c2ccc(F)cc2)NC(=O)N1 (stereo not given) (10 µM) | 0 | 0 | 0 | 0 | 0 | 0 | 0 | 0 | 0 | 0 |

The list continues:

| SMILES | number of time points (EGFR_L861Q) | number of time points (EGFR_T790M) | number of time points (EPHA2) | number of time points (ERBB3) | number of time points [1] | number of time points (ERN1) | number of time points (FGFR1) | number of time points (FGFR2) | number of time points (FGFR3) | number of time points (FGR) |
| --- | --- | --- | --- | --- | --- | --- | --- | --- | --- | --- |
| O=c1nc(N2CCOCC2)oc2c(-c3cccc4c3sc3ccccc34)cccc12 (10 µM) | 0 | 0 | 0 | 0 | 0 | 0 | 0 | 0 | 0 | 0 |
| CC(=O)Nc1nc(C)c(-c2nc(N3CCCC(O)C3)no2)s1 (stereo not given) (10 µM) | 0 | 0 | 0 | 0 | 0 | 0 | 0 | 0 | 0 | 0 |
| Nc1[nH]c(=O)nc2c1ncn2[C@@H]1O[C@H](CO)[C@@H](O)[C@H]1O [Crotonoside] (10 µM) | 0 | 0 | 0 | 0 | 0 | 0 | 0 | 0 | 0 | 0 |
| Cc1nc(NC(=O)NCCc2nnn(CCF)n2)sc1-c1ccc(S(C)(=O)=O)c(F)c1 (10 µM) | 0 | 0 | 0 | 0 | 0 | 0 | 0 | 0 | 0 | 0 |
| CCN1/C(=C/C(C)=O)Sc2ccc(OC)cc21 (10 µM) | 1 | 1 | 0 | 3 | 2 | 1 | 0 | 0 | 0 | 1 |
| O=S(=O)(c1cccc2cnccc12)N1CCNCC1 (10 µM) | 0 | 0 | 0 | 0 | 0 | 0 | 0 | 0 | 0 | 0 |
| Cc1cc2cc(Oc3ccnc(Nc4cccc(CS(=O)(=O)NCCN(C)C)c4)n3)ccc2[nH]1 [Sulfatinib] (10 µM) | 0 | 0 | 0 | 3 | 2 | 0 | 0 | 2 | 0 | 0 |
| NS(=O)(=O)c1ccc(N2N=C(c3ccccc3)CC2c2ccccc2)cc1 (stereo not given) (10 µM) | 0 | 0 | 0 | 1 | 0 | 0 | 0 | 0 | 0 | 0 |
| COc1ccc(CN2C3CC2CN(c2ccc(-c4cc(OCC(C)(C)O)cn5ncc(C#N)c45)cn2)C3)cn1 [Selpercatinib] (10 µM) | 0 | 0 | 0 | 0 | 0 | 0 | 0 | 0 | 0 | 0 |
| N#Cc1ccc(-c2c(-c3ncn[nH]3)sc(N3CCOCC3)c2C#N)c(F)c1 (10 µM) | 0 | 0 | 0 | 0 | 0 | 0 | 0 | 0 | 0 | 0 |
| O=c1[nH]ccc2cc(OC3CCNCC3)ccc12 (10 µM) | 0 | 0 | 0 | 0 | 0 | 0 | 0 | 0 | 0 | 0 |
| C[C@H]1[C@H](OC(=O)CCC(=O)O)O[C@@H]2O[C@@]3(C)CC[C@H]4[C@H](C)CC[C@@H]1[C@@]24OO3 [Artesunate] (2.5 µM) | 2 | 0 | 0 | 0 | 1 | 0 | 0 | 0 | 0 | 0 |
| Cc1cc(Nc2nc(N[C@@H](C)c3ncc(F)cn3)ncc2Cl)[nH]n1 (10 µM) | 0 | 0 | 0 | 0 | 0 | 0 | 0 | 0 | 0 | 0 |
| CC1(N)CCN(c2cnc3c(-c4cccc(Cl)c4Cl)[nH]nc3n2)CC1 (2.5 µM) | 0 | 0 | 0 | 0 | 0 | 0 | 0 | 0 | 0 | 0 |
| CC[C@@H]1[C@H](F)C(=O)N[C@@H]1COc1nccc2cc(C(N)=O)c(OC)cc12 (10 µM) | 0 | 0 | 0 | 0 | 0 | 0 | 0 | 0 | 0 | 0 |
| CCC(C)(C)C(=O)N(O)Cc1ccccc1 (10 µM) | 0 | 0 | 0 | 0 | 0 | 0 | 0 | 0 | 0 | 0 |
| C=CC(=O)Nc1cccc(Oc2nc(Nc3ccc(N4CCN(C)CC4)cc3)nc3ccoc23)c1 [Poseltinib] (10 µM) | 0 | 0 | 0 | 0 | 0 | 0 | 0 | 0 | 0 | 0 |
| COc1cc2ncnc(Nc3ccc(NC(=O)c4ccccc4)cc3)c2cc1OC [Aurora kinase inhibitor-2] (2.5 µM) | 0 | 0 | 0 | 0 | 0 | 0 | 0 | 0 | 0 | 0 |
| CCN1C(=O)CNc2ncc(-c3ccc(-c4nc[nH]n4)nc3C)nc21 [CC-115 (hydrochloride)] (2.5 µM) | 2 | 1 | 1 | 0 | 4 | 2 | 3 | 3 | 4 | 0 |
| Cc1cc(Nc2cc(CN3CCOCC3)c3nc(C)c(Cc4ccc(Cl)cc4F)n3n2)n[nH]1 [Gandotinib] (2.5 µM) | 0 | 0 | 0 | 0 | 0 | 0 | 0 | 0 | 0 | 0 |
| CC(C)(O)[C@@H]1CC[C@](C)([C@H]2[C@@H](O)C[C@@]3(C)[C@@H]4C[C@H](O[C@@H]5O[C@H](CO)[C@@H](O)[C@H](O)[C@H]5O)[C@H]5C(C)(C)[C@@H](O[C@@H]6OC[C@@H](O)[C@H](O)[C@H]6O[C@@H]6O[C@H](CO)[C@@H](O)[C@H](O)[C@H]6O)CC[C@@]56C[C@@]46CC[C@]23C)O1 [Astragaloside VI] (10 µM) | 0 | 0 | 0 | 0 | 0 | 0 | 0 | 0 | 0 | 0 |
| Fc1c(Br)cccc1Nc1ncnc2cc3c(cc12)OCCO3 (2.5 µM) | 1 | 0 | 0 | 0 | 1 | 1 | 0 | 0 | 0 | 0 |
